Measured values taken from patent US11718589B2, “Compositions and methods of modulating short-chain dehydrogenase” (CASE WESTERN RESERVE UNIVERSITY, priority 2017, dated 2023).

Amino acid sequences for entries named in this document (tags omitted).
UniProt P15428, whole entry: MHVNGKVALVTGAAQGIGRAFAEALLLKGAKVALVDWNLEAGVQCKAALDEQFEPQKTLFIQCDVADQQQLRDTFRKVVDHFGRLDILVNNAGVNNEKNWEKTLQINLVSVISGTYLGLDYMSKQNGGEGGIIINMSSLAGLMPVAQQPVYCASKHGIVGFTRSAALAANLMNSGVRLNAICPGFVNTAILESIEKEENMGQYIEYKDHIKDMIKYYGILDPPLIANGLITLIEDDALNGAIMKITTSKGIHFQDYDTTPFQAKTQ

Target: recombinant 15-PGDH (Homo sapiens (Human), UniProt P15428)
Experiment: Enzyme inhibition of recombinant 15-PGDH, in vitro assay
Format: biochemical
Conditions: read-out: Enzyme inhibition (IC50); recombinant human 15-PGDH

O=C(c1cc2ncc(-c3cccs3)cn2n1)N1CCCCC1
IC50: 100 nM

The structures given here were assigned with low confidence; some may be wrong.
